Experimental findings from US20210024639A1 (AGOMAB THERAPEUTICS, published 2021) are described below.

Assay [1] deals with T1, human MET extracellular domain (ECD) (human, UniProt P08581 25-932).
T1 construct: range 1-932; recombinant ECD; also called hMET; human MET ECD
Kind of assay: SPR and ELISA, periplasmic Fab. (In general: ELISA stands for enzyme-linked immunosorbent assay.)

Assay [2] addresses T2, mouse MET extracellular domain (ECD) (mouse, UniProt P16056 25-931).
T2 construct: range 1-931; recombinant ECD; also called mMET; mouse MET ECD
The assay can be described thus: SPR and ELISA, periplasmic Fab.

The next assay deals with llama MET ECD (llama). The assay can be described thus: ELISA, protein in solid phase.
The target in assay [3] is llama-human MET chimeric protein CH4. Kind of assay: ELISA, protein in solid phase.
The target in assay [4] is llama-human MET chimeric protein CH5. The assay can be described thus: ELISA, protein in solid phase.
The target in assay [5] is T1, human MET extracellular domain (ECD). Kind of assay: ELISA, MET ECD in solid phase.
Assay [6] addresses T2, mouse MET extracellular domain (ECD). Kind of assay: ELISA, MET ECD in solid phase.
Assay [7] concerns the target T1, human MET extracellular domain (ECD). Kind of assay: ELISA, protein in solid phase, mAb 0-20 nM.
Assay [8] concerns the target llama-human MET chimeric protein CH1. The assay can be described thus: ELISA, protein in solid phase, mAb 0-20 nM.
Assay [9] has as its target llama-human MET chimeric protein CH2. Kind of assay: ELISA, protein in solid phase, mAb 0-20 nM.
Assay [10] deals with llama-human MET chimeric protein CH3. The assay can be described thus: ELISA, protein in solid phase, mAb 0-20 nM.
For assay [11], the target named is llama-human MET chimeric protein CH6. Kind of assay: ELISA, protein in solid phase, mAb 0-20 nM.
For assay [12], the target named is llama-human MET chimeric protein CH7. Kind of assay: ELISA, protein in solid phase, mAb 0-20 nM.

These are yes or no findings as the source states them, for the method shown. For some assays here: Binding can be weak; no strength is given.

B1: Fab 71G3 (Fab, V domains shown)
VH: QVQLVESGGGLVQPGGSLRVSCAASGFTFSTYYMSWVRQAPGKGLEWVSDIRTDGGTYYADSVKGRFTMSRDNAKNTLYLQMNSLKPEDTALYYCARTRIFPSGYDYWGQGTQVTVSS
VL: QAVVTQEPSLSVSPGGTVTLTCGLSSGSVTTSNYPGWFQQTPGQAPRTLIYNTNSRHSGVPSRFSGSISGNKAALTIMGAQPEDEADYYCSLYPGSTTVFGGGTHLTVL
notes: llama Fab (VH-CH1, lambda VL-CL) with MYC flag, crude periplasmic extract
As to B1, the binding result in assay [1] and in assay [2] was “binds” each time.

B2: Fab 76H10 (Fab, V domains shown)
VH: QLQLVESGGGLVQPGGSLRVSCTASGFTFNTYYMTWVRQAPGKGLEWVSDINSGGGTYYADSVKGRFTISRDNAKNTLYLQMNSLKPEDTALYYCVRVRIWPVGYDYWGQGTQVTVSS
VL: QAVVTQEPSLSVSPGGTVTLTCGLSSGSVTTSNYPGWFQQTPGQAPRTLIYNTNNRHSGVPSRFSGSISGNKAALTITGAQPEDEADYYCSLYTGSYTTVFGGGTHLTVL
notes: as for B1
In the case of B2, the binding entry in assay [1] and in assay [2] was “binds” each time.

B3: Fab 71C3 (Fab, V domains shown)
VH: QLQLVESGGGLVQPGGSLRLSCAASGFTFSSHAMSWVRQAPGKGLEWVSAINSGGGSTSYADSVKGRFTISRDNAKNTLYLQMNSLKPEDTAVYYCAKELRFDLARYTDYEAWDYWGQGTQVTVSS
VL: SYELTQPSALSVTLGQTAKITCQGGSLGSSYAHWYQQKPGQAPVLVIYDDDSRPSGIPERFSGSSSGGTATLTISGAQAEDEGDYYCQSADSSGNAAVFGGGTHLTVL
notes: as for B1
Consider B3, for which the binding entry in assay [1] and in assay [2] was “binds” in each case.

B4: chimeric llama-human IgG1 mAb 71C3 (antibody, V domains shown)
VH: QLQLVESGGGLVQPGGSLRLSCAASGFTFSSHAMSWVRQAPGKGLEWVSAINSGGGSTSYADSVKGRFTISRDNAKNTLYLQMNSLKPEDTAVYYCAKELRFDLARYTDYEAWDYWGQGTQVTVSS
VL: SYELTQPSALSVTLGQTAKITCQGGSLGSSYAHWYQQKPGQAPVLVIYDDDSRPSGIPERFSGSSSGGTATLTISGAQAEDEGDYYCQSADSSGNAAVFGGGTHLTVL
For the molecule B4, the binding entry is “no binding (tested: 0-20 nM)” with llama MET ECD (llama); “no binding (tested: 0-20 nM)” in assay [3]; “no binding (tested: 0-20 nM)” in assay [4]; “binds” in assay [5]; “binds” in assay [6]; “binds” in [7]. For the same molecule, the binding result in assay [8], in assay [9], in assay [10], in assay [11] and in assay [12] was “binds” in each case.

B5: chimeric llama-human IgG1 mAb 71D6 (antibody, V domains shown)
VH: ELQLVESGGGLVQPGGSLRLSCAASGFTFSSYGMSWVRQAPGKGLEWVSAINSYGGSTSYADSVKGRFTISRDNAKNTLYLQMNSLKPEDTAVYYCAKEVRADLSRYNDYESYDYWGQGTQVTVSS
VL: QPVLNQPSALSVTLGQTAKITCQGGSLGARYAHWYQQKPGQAPVLVIYDDDSRPSGIPERFSGSSSGGTATLTISGAQAEDEGDYYCQSADSSGSVFGGGTHLTVL
Take B5: the binding result with llama MET ECD (llama) is “no binding (tested: 0-20 nM)”; in assay [3] it was “no binding (tested: 0-20 nM)”; in [4] it was “no binding (tested: 0-20 nM)”; in assay [5], “binds”; in [6], “binds”; in assay [7] it was “binds”. Besides, the binding entry in [8], in assay [9], in assay [10], in [11] and in [12] was “binds” each time.

B6: Fab 71A3 (Fab, V domains shown)
VH: EVQLVESGGGLVQPGGSLRLSCAASGFSFKDYDITWVRQAPGKGLEWVSTITSRSGSTSYVDSVKGRFTISGDNAKNTLYLQMNSLKPEDTAVYYCAKVYATTWDVGPLGYGMDYWGKGTLVTVSS
VL: SYELTQPSALSVTLGQTAKITCQGGSLGSSYAHWYQQKPGQAPVLVIYDDDSRPSGIPERFSGSSSGGTATLTISGAQAEDEGDYYCQSADSSGNAAVFGGGTHLTVL
notes: as for B1
Regarding B6, the binding result in [1] and in assay [2] was “binds” each time.

B7: Fab 71D6 (Fab, V domains shown)
VH: ELQLVESGGGLVQPGGSLRLSCAASGFTFSSYGMSWVRQAPGKGLEWVSAINSYGGSTSYADSVKGRFTISRDNAKNTLYLQMNSLKPEDTAVYYCAKEVRADLSRYNDYESYDYWGQGTQVTVSS
VL: QPVLNQPSALSVTLGQTAKITCQGGSLGARYAHWYQQKPGQAPVLVIYDDDSRPSGIPERFSGSSSGGTATLTISGAQAEDEGDYYCQSADSSGSVFGGGTHLTVL
notes: as for B1
On to B7, for which the binding entry in assay [1] and in assay [2] was “binds” throughout.

B8: chimeric llama-human IgG1 mAb 71A3 (antibody, V domains shown)
VH: EVQLVESGGGLVQPGGSLRLSCAASGFSFKDYDITWVRQAPGKGLEWVSTITSRSGSTSYVDSVKGRFTISGDNAKNTLYLQMNSLKPEDTAVYYCAKVYATTWDVGPLGYGMDYWGKGTLVTVSS
VL: SYELTQPSALSVTLGQTAKITCQGGSLGSSYAHWYQQKPGQAPVLVIYDDDSRPSGIPERFSGSSSGGTATLTISGAQAEDEGDYYCQSADSSGNAAVFGGGTHLTVL
As to B8, the binding entry with llama MET ECD (llama) is listed as “no binding (tested: 0-20 nM)”; in assay [3], “no binding (tested: 0-20 nM)”; in assay [4], “no binding (tested: 0-20 nM)”; in assay [5], “binds”; in assay [6], “binds”; in [7], “binds”. For the same molecule, the binding result in assay [8], in assay [9], in assay [10], in [11] and in [12] was “binds” throughout.

B9: Fab 71D4 (Fab, V domains shown)
VH: ELQLVESGGGLVQPGGSLRLSCAASGFTFSGYGMSWVRQAPGKGLEWVSDINSGGGSTSYADSVKGRFTISRDNAKNTLYLQMNSLKPEDTAVYYCAKDMRLYLARYNDYEAWDYWGQGTQVTVSS
VL: SSALTQPSALSVTLGQTAKITCQGGSLGSSYAHWYQQKPGQAPVLVIYDDDSRPSGIPERFSGSSSGGTATLTISGAQAEDEGDYYCQSADSSGNAAVFGGGTHLTVL
notes: as for B1
B9: the binding entry in assay [1] and in assay [2] was “binds” throughout.

B10: chimeric llama-human IgG1 mAb 71D4 (antibody, V domains shown)
VH: ELQLVESGGGLVQPGGSLRLSCAASGFTFSGYGMSWVRQAPGKGLEWVSDINSGGGSTSYADSVKGRFTISRDNAKNTLYLQMNSLKPEDTAVYYCAKDMRLYLARYNDYEAWDYWGQGTQVTVSS
VL: SSALTQPSALSVTLGQTAKITCQGGSLGSSYAHWYQQKPGQAPVLVIYDDDSRPSGIPERFSGSSSGGTATLTISGAQAEDEGDYYCQSADSSGNAAVFGGGTHLTVL
For the molecule B10, the binding result was “no binding (tested: 0-20 nM)” in the assay with llama MET ECD (llama); “no binding (tested: 0-20 nM)” in [3]; “no binding (tested: 0-20 nM)” in [4]; “binds” in assay [5]; “binds” in assay [6]; “binds” in [7]. In addition, the binding entry in [8], in [9], in assay [10], in assay [11] and in assay [12] was “binds” in each case.

B11: Fab 71G2 (Fab, V domains shown)
VH: EVQLQESGGGLVQPGGSLRLSCAASGFTFSIYDMSWVRQAPGKGLEWVSTINSDGSSTSYVDSVKGRFTISRDNAKNTLYLQMNSLKPEDTAVYYCAKVYGSTWDVGPMGYGMDYWGKGTLVTVSS
VL: SSALTQPSALSVSLGQTARITCQGGSLGSSYAHWYQQKPGQAPVLVIYGDDSRPSGIPERFSGSSSGGTATLTISGAQAEDEDDYYCQSTDSSGNTVFGGGTRLTVL
notes: as for B1
B11: the binding result in assay [1] and in [2] was “binds” each time.

B12: Fab 76G7 (Fab, V domains shown)
VH: QVQLVESGGNLVQPGGSLRLSCAASGFTFSNYYMSWVRQAPGKGLEWVSDIYSDGSTTWYSDSVKGRFTISRDNAKNTLSLQMNSLKSEDTAVYYCARVKIYPGGYDAWGQGTQVTVSS
VL: QAGLTQPPSVSGSPGKTVTISCAGNSSDVGYGNYVSWYQQFPGMAPKLLIYLVNKRASGITDRFSGSKSGNTASLTISGLQSEDEADYYCASYTGSNNIVFGGGTHLTVL
notes: as for B1
B12: the binding entry in assay [1] and in [2] was “binds” each time.

B13: Fab 72F8 (Fab, V domains shown)
VH: ELQLVESGGGLVQPGGSLRLSCAASGFTFSNYVMSWVRQAPGKGLEWVSDTNSGGSTSYADSVKGRFTISRDNAKNTLYLQMNSLKPEDTALYYCARSFFYGMNYWGKGTQVTVSS
VL: QSALTQPPSLSASPGSSVRLTCTLSSGNNIGSYDISWYQQKAGSPPRYLLNYYTDSRKHQDSGVPSRFSGSKDASANAGLLLISGLQPEDEADYYCSAYKSGSYRWVFGGGTHVTVL
notes: as for B1
Consider B13, for which the binding result in assay [1] and in assay [2] was “binds” in each case.
